This assay addresses T1, SVIP (UniProt Q8NHG7).
T1 sequence: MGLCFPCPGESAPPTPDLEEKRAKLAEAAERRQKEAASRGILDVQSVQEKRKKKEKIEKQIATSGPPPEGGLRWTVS
Description: pull-down; p97 with SVIP in the presence of different nucleotides; no further details.

Results are given in words; binding and its absence hold for the method and conditions named. In cells and extracts the contact can be indirect. Some entries that bind do so weakly or less than the wild type.

Consider “full-length wild-type p97 (^FLp97^wt) (from UniProt P55072 1-806) (enzyme)”, for which the binding result is reported as “binds”.

The record behind these values is article PMC5725882.
